# Experimental data reported in the supplement of paper PMC11659162.
# Where “and” joins values, the source holds several entries; their conditions need not be identical. Equal values may be shown once. This is one part of the list. Single values of this set are uncertain.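 The cells are a human neuroglioma line carrying a green fluorescent autophagy reporter.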
# Key:
# H4 GFP-LC3 [1] = assay: cell viability (scaled to control) (fraction of control); higher = more viable cells; details: 5 µM
# H4 GFP-LC3 [2] = assay: ACBP immunofluorescence intensity (scaled to control) (AU (scaled)); higher = more intracellular ACBP/DBI; details: 5 µM
SMILES,cell viability (H4 GFP-LC3 [1]; 6 h),cell viability (H4 GFP-LC3 [1]; 24 h),ACBP immunofluorescence intensity (H4 GFP-LC3 [2]; 6 h),ACBP immunofluorescence intensity (H4 GFP-LC3 [2]; 24 h)
c1ccc2nc(N3CCNCC3)ccc2c1,0.85,1.09,0.895,0.605
C/C=C1/C[N+]2(C)CCC34C(=C(C=O)[C@H]1C[C@@H]32)Nc1ccccc14 (some centres not stated),0.883,1.01,0.997,0.429
Clc1ccc(C2CC3CCC2N3)cn1 (racemic),0.939,,0.97,0.6
CN1C[C@H](C(=O)N[C@]2(C)O[C@@]3(O)[C@@H]4CCCN4C(=O)[C@H](Cc4ccccc4)N3C2=O)C[C@@H]2c3cccc4[nH]cc(c34)C[C@H]21,0.734,0.93,0.865,0.523
CC(C)C[C@H](NC(=O)[C@H](Cc1ccccc1)NC(=O)CNC(=O)[C@H](NC(=O)[C@@H](N)Cc1ccc(O)cc1)[C@H](C)O)C(=O)N[C@@H](C(=O)O)[C@@H](C)O,0.943,0.705,0.626,0.631
CCCN[C@@H]1CCc2c(OC)cccc2[C@@H]1C,0.795,1.23,0.897,0.694
C=C(C)[C@H]1CN[C@H](C(=O)O)[C@H]1CC(=O)O,1.07,1.18,0.797,0.763
Cn1c2c(c3ccccc31)CCNCC2,0.831,0.959,0.988,0.822
CCN1C[C@]2(C)CC[C@H](O)[C@]34C1[C@@H](C[C@H]23)[C@@]1(O)C[C@H](OC)[C@H]2C[C@@H]4[C@@H]1[C@H]2O,1.05,1.23,0.96,0.606
CC(C)C[C@H](NC(=O)[C@H](Cc1ccccc1)NC(=O)CNC(=O)CNC(=O)[C@@H](N)Cc1ccc(O)cc1)C(N)=O,1.2 and 1.11,1.02 and 0.8,0.75 and 0.497,0.853 and 0.469
NCCc1ccc(O)cc1,1.08,0.88,0.544,0.732
c1ccc(C2CNCc3ccccc32)cc1 (configuration not stated),0.794,1.25,0.938,0.432
CN1[C@@H]2CC[C@H]1C[C@@H](OC(c1ccccc1)c1ccccc1N)C2 (some centres not stated),0.977,1.14,0.932,0.591
CC(C)(Cc1c[nH]c2ccc(Cl)cc12)NCCOc1ccccc1OCC1CC1,0.896,0.777,0.948,0.73
CN1CCN(c2ccc3ccccc3n2)CC1,0.725,1.05,0.986,0.82
CC(=O)O[C@H]1C[C@@H]2CC[C@@H]3[C@H](CC[C@@]4(C)[C@H]3C[C@H]([N+]3(C)CCCCC3)[C@@H]4OC(C)=O)[C@@]2(C)C[C@@H]1[N+]1(C)CCCCC1,0.73,0.977,0.928,0.51
CN1[C@@H]2CC[C@H]1C[C@@H](OC(=O)c1cc(Cl)cc(Cl)c1)C2,0.884,1.09,0.955,0.826
CCNC(=O)[C@H]1O[C@@H](n2cnc3c(N)ncnc32)[C@H](O)[C@@H]1O,1.04,1.07,0.97,0.807
COc1ccc2c(c1)[C@]13CCCC[C@@H]1[C@H](C2)N(C)CC3,1.08,1.26,0.716,0.535
CC(C)(C)NCC(O)c1cc(Cl)c(N)c(Cl)c1 (configuration not stated),0.946,0.744,0.787,0.4
c1ccc2c(N3CCNCC3)cccc2c1,0.842,1.16,0.842,0.613
O=c1[nH]c2ccccc2n1CCCN1CCC(n2c(=O)[nH]c3cc(Cl)ccc32)CC1,0.834,1.13,0.862,0.507
C=CCN1CCC2(C)c3cc(O)ccc3CC1C2C (racemic),1.04,1.1,0.788,0.806

# Ordered by length of the SMILES (rising): some entries from above
SMILES,cell viability (H4 GFP-LC3 [1]; 6 h),cell viability (H4 GFP-LC3 [1]; 24 h),ACBP immunofluorescence intensity (H4 GFP-LC3 [2]; 6 h),ACBP immunofluorescence intensity (H4 GFP-LC3 [2]; 24 h)
NCCc1ccc(O)cc1,1.08,0.88,0.544,0.732
c1ccc2c(N3CCNCC3)cccc2c1,0.842,1.16,0.842,0.613
CC(=O)O[C@H]1C[C@@H]2CC[C@@H]3[C@H](CC[C@@]4(C)[C@H]3C[C@H]([N+]3(C)CCCCC3)[C@@H]4OC(C)=O)[C@@]2(C)C[C@@H]1[N+]1(C)CCCCC1,0.73,0.977,0.928,0.51

# The listing continues:

SMILES,cell viability (H4 GFP-LC3 [1]; 6 h),cell viability (H4 GFP-LC3 [1]; 24 h),ACBP immunofluorescence intensity (H4 GFP-LC3 [2]; 6 h),ACBP immunofluorescence intensity (H4 GFP-LC3 [2]; 24 h)
CN(C)C(=O)Oc1cccc([N+](C)(C)C)c1,0.935,1.39,0.995,0.783
O=C1C[C@@H]2OCC=C3CN4CC[C@]56c7ccccc7N1[C@H]5[C@H]2[C@H]3C[C@H]46,0.869,1.18,0.989,0.784
O=C1NCN(c2ccccc2)C12CCN(CCCOc1ccc(F)cc1)CC2,0.923,1.07,0.957,0.867
C[C@H]1CC[C@@H]2N(C1)C[C@H]1[C@@H]3C[C@H]4[C@@H](CC(=O)[C@H]5C[C@@H](O)CC[C@@]54C)[C@@H]3CC[C@H]1[C@]2(C)O,0.765,0.992,0.993,0.581
CO[C@H]1CC=C2CCN3CCC4=C(CC(=O)OC4)[C@]23C1,0.704,0.881,0.973,0.459
CN1CC(CNC(=O)OCc2ccccc2)CC2c3cccc4c3c(cn4C)CC21 (configuration not stated),0.741,1.02,0.98,0.754
NCC(CP(=O)(O)O)c1ccc(Cl)cc1 (configuration not stated),0.933,1.02,0.975,0.894
Cn1cc(C(=O)C(=O)NC2CN3CCC2CC3)c2ccccc21 (configuration not stated),0.707,0.798,0.909,0.546
CNCC/C=C/c1cccnc1,1.01,1.07,0.881,0.614
Clc1ccc(N2CCN(Cc3c[nH]c4ncccc34)CC2)cc1,0.762,1.22,0.994,0.854
COc1ccc(OC)c(C(O)C(C)N)c1 (configuration not stated),0.926,0.909,0.859,0.376
"C=CCN1CC[C@@]2(C)c3cc(O)ccc3C[C@@H]1C2C (single isomer, unassigned; (+))",1.01,1.04,0.718,0.828
CC(=O)NCCc1c[nH]c2ccccc12,1.09,1.2,0.924,0.617
CO[C@]12C[C@@H](COC(=O)c3cncc(Br)c3)CN(C)[C@@H]1Cc1cn(C)c3cccc2c13,0.544,0.829,0.776,0.592
N=C(NCc1ccc(Cl)cc1)SCCCc1c[nH]cn1,1.12,0.92,0.917,0.437
CC(C)[C@H]1C(=O)N2CCC[C@H]2[C@]2(O)O[C@](NC(=O)[C@@H]3C=C4c5cccc6[nH]cc(c56)C[C@H]4N(C)C3)(C(C)C)C(=O)N12,0.788,1.15,0.887,0.633
CC[N+](CC)(CCCNC1=CC(=O)C(NCCC[N+](CC)(CC)Cc2ccccc2)=CC1=O)Cc1ccccc1,1,1.12,0.851,0.544
Cc1cccc(C)c1NC1=NCCCS1,0.639,0.822,0.919,0.455
O=C(Cc1ccc(Cl)c(Cl)c1)N1CCCCC1CN1CCCC1 (configuration not stated),1,0.995,0.925,0.85
COC(=O)[C@@H]1C[C@H](OC(C)=O)C(=O)[C@H]2[C@@]1(C)CC[C@H]1C(=O)O[C@H](c3ccoc3)C[C@]21C,1.06,0.96,0.766,0.656
CC[C@H](C)[C@H](NC(=O)[C@H](CCCN=C(N)N)NC(=O)[C@H](CCCN=C(N)N)NC(=O)[C@H](CC(C)C)NC(=O)[C@H](Cc1ccccc1)NC(=O)CNC(=O)CNC(=O)[C@@H](N)Cc1ccc(O)cc1)C(=O)N[C@@H](CCCN=C(N)N)C(=O)N1CCC[C@H]1C(=O)N[C@@H](CCCCN)C(=O)N[C@@H](CC(C)C)C(=O)N[C@@H](CCCCN)C(=O)O,1.05,0.956,0.765,0.667
Clc1cncc(N2CCNCC2)n1,0.732,1.15,1,0.941
CC(=O)OC1CN2CCC1CC2 (configuration not stated),1,1.29,0.859,0.482

SMILES,cell viability (H4 GFP-LC3 [1]; 6 h),cell viability (H4 GFP-LC3 [1]; 24 h),ACBP immunofluorescence intensity (H4 GFP-LC3 [2]; 6 h),ACBP immunofluorescence intensity (H4 GFP-LC3 [2]; 24 h)
N[C@@H](Cn1oc(=O)[nH]c1=O)C(=O)O,1.01,1.13,0.892,0.396
CC(N)Cc1c[nH]c2ccc(OCc3cccs3)cc12 (configuration not stated),0.738,0.669,0.925,0.524
Clc1cccc(SC2CCNCC2)n1,0.823,1.02,0.843,0.481
CN(C(=O)Cc1ccc(Cl)c(Cl)c1)C(CN1CCCC1)c1cccc(OCC(=O)O)c1 (configuration not stated),1.09,1.09,0.865,0.768
O[C@@H]1CCCC[C@H]1N1CCC(c2ccccc2)CC1 (racemic),0.99,1.11,0.936,0.704
CC(C)[C@@]1(NC(=O)[C@@H]2C[C@@H]3c4cccc5[nH]cc(c45)C[C@H]3N(C)C2)O[C@@]2(O)[C@@H]3CCCN3C(=O)[C@H](Cc3ccccc3)N2C1=O,0.738,1.03,0.906,0.694
COc1ccc(C(=O)N2CCCC2=O)cc1,1.09,1.23,0.794,0.492
O=c1cccc2n1C[C@@H]1CNC[C@H]2C1,0.86,1.17,0.954,0.593
Cc1nnc2ccc(-c3cccc(C(F)(F)F)c3)nn12,0.914,1.16,0.843,0.4
C[N+]1(C)CCN(c2ccccc2)CC1,1.06,1.04,0.918,0.633
NCCc1c[nH]c2ccccc12,1.23,0.974,0.38,0.659
CC[C@@H](CO)NC(=O)[C@@H]1C=C2c3cccc4c3c(cn4C)C[C@H]2N(C)C1,0.663,1,1,0.859
S=C(NC1CCCCC1)N1CCC(c2cnc[nH]2)CC1,0.946,1.07,0.977,0.911
CCCN1C[C@H](C)N([C@H](c2ccc(C(=O)N(CC)CC)cc2)c2cccc(OC)c2)C[C@H]1C,1.2,0.739,0.754,0.733
CN1Cc2ccccc2[C@@H]2c3cccc4[nH]cc(c34)C[C@H]21,0.894,1.03,0.739,0.604
NCC(CC(=O)O)c1ccc(Cl)cc1 (racemic),0.913,1.07,0.956,0.536
C=CCN1CC[C@]23CCCC[C@H]2[C@H]1Cc1ccc(O)cc13,1.09,1.25,0.842,0.686
N[C@H](C(=O)O)c1cc(O)no1,1.01,1.3,0.907,0.665
CN1C(=O)COc2c(C(=O)NC3CN4CCC3CC4)cc(Cl)cc21 (configuration not stated),0.656,0.962,0.941,0.464
COc1ccc2c(c1OC)C(=O)O[C@H]2[C@@H]1c2cc3c(cc2CCN1C)OCO3,0.772,0.944,0.943,0.466
CC(C)C[C@H](NC(=O)[C@H](Cc1ccccc1)NC(=O)CNC(=O)[C@@H](CO)NC(=O)[C@@H](N)Cc1ccc(O)cc1)C(=O)N[C@H](C(=O)O)[C@@H](C)O,0.881,1.22,0.894,0.918

# 2 compounds from above, showing only cell viability (H4 GFP-LC3 [1]; 6 h).
SMILES,cell viability (H4 GFP-LC3 [1]; 6 h)
Clc1cccc(SC2CCNCC2)n1,0.823
COc1ccc(C(=O)N2CCCC2=O)cc1,1.09
